The values that follow come from paper PMC11753375.

Chains of the proteins cited; added tags and fusions are not shown. Lines headed by an entry give the natural chain unless they say otherwise; changes in a name come on top. A line that says so, or that is headed by a name, gives the form on record, which may keep a tag or linker.
UniProt P45974: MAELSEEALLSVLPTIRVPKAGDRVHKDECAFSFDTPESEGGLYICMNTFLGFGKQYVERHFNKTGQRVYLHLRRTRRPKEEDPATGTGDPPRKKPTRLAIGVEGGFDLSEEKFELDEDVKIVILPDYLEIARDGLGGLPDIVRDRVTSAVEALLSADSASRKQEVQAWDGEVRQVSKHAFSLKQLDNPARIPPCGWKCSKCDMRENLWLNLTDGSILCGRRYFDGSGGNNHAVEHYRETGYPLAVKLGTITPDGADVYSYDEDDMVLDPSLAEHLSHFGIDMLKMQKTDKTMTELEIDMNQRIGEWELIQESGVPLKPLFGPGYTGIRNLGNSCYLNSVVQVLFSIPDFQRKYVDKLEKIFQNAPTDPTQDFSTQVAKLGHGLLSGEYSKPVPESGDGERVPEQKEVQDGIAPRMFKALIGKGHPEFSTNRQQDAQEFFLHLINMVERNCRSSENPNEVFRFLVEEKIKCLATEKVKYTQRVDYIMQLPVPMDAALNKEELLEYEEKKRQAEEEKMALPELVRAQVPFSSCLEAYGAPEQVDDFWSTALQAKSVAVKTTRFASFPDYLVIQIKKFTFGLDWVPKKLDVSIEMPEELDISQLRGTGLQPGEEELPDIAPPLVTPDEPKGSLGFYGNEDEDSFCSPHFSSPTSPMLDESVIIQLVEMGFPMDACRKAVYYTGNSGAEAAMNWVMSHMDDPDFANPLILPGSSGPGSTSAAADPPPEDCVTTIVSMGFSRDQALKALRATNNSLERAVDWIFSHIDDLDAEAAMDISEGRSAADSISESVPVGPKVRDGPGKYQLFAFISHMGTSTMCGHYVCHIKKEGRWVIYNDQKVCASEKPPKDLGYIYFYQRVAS
hsUSP5^short-GFP (P45974, form named): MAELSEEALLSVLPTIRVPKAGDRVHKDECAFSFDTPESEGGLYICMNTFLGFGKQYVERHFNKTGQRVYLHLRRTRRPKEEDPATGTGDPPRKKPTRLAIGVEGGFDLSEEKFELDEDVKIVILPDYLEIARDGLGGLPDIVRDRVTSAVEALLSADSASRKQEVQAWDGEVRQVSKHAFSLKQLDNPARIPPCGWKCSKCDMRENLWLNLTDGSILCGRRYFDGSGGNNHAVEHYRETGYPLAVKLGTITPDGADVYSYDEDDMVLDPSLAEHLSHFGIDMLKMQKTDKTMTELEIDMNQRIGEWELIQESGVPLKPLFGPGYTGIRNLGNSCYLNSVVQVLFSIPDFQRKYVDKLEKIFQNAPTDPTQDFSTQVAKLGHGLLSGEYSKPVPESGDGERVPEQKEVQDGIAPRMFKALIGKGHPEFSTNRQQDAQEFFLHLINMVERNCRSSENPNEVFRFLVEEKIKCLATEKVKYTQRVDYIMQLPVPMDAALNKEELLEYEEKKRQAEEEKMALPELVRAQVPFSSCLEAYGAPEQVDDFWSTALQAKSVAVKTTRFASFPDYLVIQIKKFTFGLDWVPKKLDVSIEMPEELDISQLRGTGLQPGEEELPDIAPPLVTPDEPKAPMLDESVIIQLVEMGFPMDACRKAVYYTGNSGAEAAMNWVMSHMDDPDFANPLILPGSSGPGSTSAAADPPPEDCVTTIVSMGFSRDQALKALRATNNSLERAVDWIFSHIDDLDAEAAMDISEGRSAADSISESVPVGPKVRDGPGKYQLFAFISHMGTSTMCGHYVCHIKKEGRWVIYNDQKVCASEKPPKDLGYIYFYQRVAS
UniProt Q9UBN7: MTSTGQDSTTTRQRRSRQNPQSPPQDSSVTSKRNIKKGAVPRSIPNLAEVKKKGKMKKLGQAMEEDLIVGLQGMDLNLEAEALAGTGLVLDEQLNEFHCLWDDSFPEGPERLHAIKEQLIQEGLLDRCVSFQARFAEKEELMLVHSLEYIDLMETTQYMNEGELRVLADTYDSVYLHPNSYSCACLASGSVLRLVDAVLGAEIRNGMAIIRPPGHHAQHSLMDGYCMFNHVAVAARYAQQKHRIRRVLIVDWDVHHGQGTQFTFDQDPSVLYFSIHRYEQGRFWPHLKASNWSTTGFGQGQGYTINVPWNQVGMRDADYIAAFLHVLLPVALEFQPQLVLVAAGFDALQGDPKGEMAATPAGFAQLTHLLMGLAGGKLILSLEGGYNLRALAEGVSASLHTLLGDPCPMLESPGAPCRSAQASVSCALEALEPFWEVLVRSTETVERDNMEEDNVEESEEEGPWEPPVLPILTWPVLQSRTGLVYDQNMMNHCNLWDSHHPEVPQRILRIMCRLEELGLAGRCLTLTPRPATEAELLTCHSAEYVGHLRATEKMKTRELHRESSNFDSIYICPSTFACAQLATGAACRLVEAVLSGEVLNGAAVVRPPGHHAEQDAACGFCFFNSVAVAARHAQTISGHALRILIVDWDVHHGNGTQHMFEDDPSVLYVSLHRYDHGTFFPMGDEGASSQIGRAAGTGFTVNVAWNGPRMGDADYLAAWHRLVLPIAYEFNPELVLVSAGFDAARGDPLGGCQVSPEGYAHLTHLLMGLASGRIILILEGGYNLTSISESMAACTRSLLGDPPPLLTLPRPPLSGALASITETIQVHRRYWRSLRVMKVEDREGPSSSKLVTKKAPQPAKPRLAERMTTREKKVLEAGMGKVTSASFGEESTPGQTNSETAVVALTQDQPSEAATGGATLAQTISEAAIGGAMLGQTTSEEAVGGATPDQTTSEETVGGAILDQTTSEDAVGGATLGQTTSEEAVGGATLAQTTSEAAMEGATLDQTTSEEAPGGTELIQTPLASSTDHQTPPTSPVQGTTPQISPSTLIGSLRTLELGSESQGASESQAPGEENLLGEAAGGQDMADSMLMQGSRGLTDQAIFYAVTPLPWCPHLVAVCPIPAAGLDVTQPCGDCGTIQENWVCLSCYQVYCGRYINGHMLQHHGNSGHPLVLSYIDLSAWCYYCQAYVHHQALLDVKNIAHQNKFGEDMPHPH

These are yes or no findings as the source states them, for the method shown. Binding seen in cells or lysates may run through a third protein. Some results given as binding are weak or reduced against the parent protein; the word gives no strength.

The target in one test is hsUSP5^short-GFP (human) (UniProt P45974). Kind of test: co-IP; fig. S2H; the set-up of this panel is not told in the text shown; by the methods GFP-tagged hsUSP5 variants were precipitated from HEK293 RIPA lysate with anti-GFP and protein G-Sepharose.
The target in a further test is hsUSP5^long-GFP (human) (UniProt P45974). The test is described as above.

For “HDAC6 (fig. S2H) (from UniProt Q9UBN7 1-1215) (enzyme)”, the binding entry with hsUSP5^short-GFP (human) and with hsUSP5^long-GFP (human) was “binds” throughout.
